# Screening data, single-dose tests

Measurements from “University of Dundee, Small-Polar-MMV Screening Library” (2021), ChEMBL document CHEMBL3988442.

Each number is a percent effect as filed.
How 0% and 100% were set is not recorded. Most values in the screen are low, and negative values occur.
Compounds were drawn at random from those tested, without regard to their results.
Two or more numbers in one place are separate tests of the same structure; such repeats can differ widely.

A: 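Whole-cell growth test on Mycobacterium tuberculosis, read after 3 days in glucose-containing 7H9 medium; the read-out is not stated. Tested at 50 µM. Higher reads as more growth inhibition (inferred: compounds with an IC50 in retests scored well above the rest). Of about 69,000 compounds tested this way, about 760 (1.1%) reached 50% or more in at least one test.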
B: 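Phenotypic screen: M. tuberculosis growth, cholesterol and DPPC medium, 4 days; the read-out is not stated. Tested at 50 µM. Higher reads as more growth inhibition (inferred: compounds with an IC50 in retests scored well above the rest). Size under these conditions: about 69,000 compounds, about 370 of them at 50% or above in at least one test.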

compound | A | B
O=C(O)C(F)(F)F.[H][C@@]12CCN(CCc3ccccc3)C[C@@]1([H])[C@H](C(=O)NC)CCO2 | -4.024% | -18.72%
CN(CCO)Cc1nnc(C2CCN(C(=O)c3cccnc3)CC2)n1C | 12.45% | 15.81%
CN1CCC(c2cccc(CCC(=O)NCC(N)=O)n2)CC1 | -6.086% | -0.5226%
Cc1ccc(-c2ccnc3cc(CC(=O)N4CCN(C)CC4)nn23)cc1 | 11.02% | -5.844%
CC1CN(C(=O)NCc2cccc(C#N)c2)CCN1CC(F)(F)F (stereo not shown) | -29.18% | 8.039% & 12%
CCN(C(=O)C1=NN(c2ccccc2)C(=O)CN1)c1ccccc1 | -5.377% & -94.53% | -30.71%
CCc1cc(N[C@H]2CCC[C@H]2CO)n2nc(C)c(C)c2n1 | 9.892% | 0.07773%
CC(NC(=O)NCc1cccnc1N(C)C)c1ccc(F)cc1 (stereo not shown) | 11.55% | 1.107%
O=S(=O)(NCCCn1ccc2ccccc21)N1CCCCC1 | 23.78% & -2.314% | -4.182%
Cc1ccc(CC(=O)N2Cc3nccn3CC(Cn3cccn3)C2)cc1 (stereo not shown) | 0.7048% | -9.619%
Cn1nc(CNC(=O)CC#N)c2c1CN(C(N)=O)CC2 | 17.55% & 1.497% | -7.025%
CC(C)NC(=O)Nc1ccc2c(c1)ncn2CC(=O)NCCN(C)C | 16.61% | 5.707%
c1cnn(CC2CN(Cc3csc(-c4ccsc4)n3)CCO2)c1 (stereo not shown) | 34.05% | 1.064% & -1.045%
COCC(=O)NCc1cc(=O)n2c(n1)CN(Cc1cccs1)CCC2 | 13.54% | 6.037%
CCCn1[nH]cc/c1=N\C(=O)CN1CCc2c(nc(C(C)C)n2C)C1 | 6.445% | -28.24%
CCOc1ccc(-c2ccnc(COc3ccccc3)n2)cc1C(=O)O | 12.2% | 16.38%
CN(Cc1ccccc1)C(=O)CS(=O)(=O)Cc1ccc(Cl)c(Cl)c1 | 31.59% | 21.57%
CC(C)c1nnc(NC(=O)NCc2cccnc2NCCN(C)C)s1 | -18.65% & -3.506% | -5.114%
COc1ccc(C)cc1C(=O)NC1(C#N)CCOCC1 | 20.52% | 4.952%
[H][C@]12CC[C@](O)(c3cccc(OC)c3)[C@@]1([H])CN(C(=O)c1c[nH]nc1C)C2 | 2.505% | -6.088% & -3.698%
Cc1ncc2c(n1)CN(C(C(N)=O)c1ccccc1)CC2 (stereo not shown) | -12.02% | -25.83%
CS(=O)(=O)Cc1ccc(Cl)cc1NCc1ccccc1F | 35.1% | 19.34%
CC(C)N(C)Cc1cnc2n1CCN(C(=O)Cc1cccs1)C2C.O=C(O)C(F)(F)F (stereo not shown) | 8.826% & -4.965% | -10.82%
Cc1cccc(Cn2cc(Br)c(NS(C)(=O)=O)n2)c1 | -5.147% | -17.17%
O=C(O)C(F)(F)F.[H][C@@]12CN(CC3CCOCC3)C[C@]1([H])C(=O)N(c1cnn(C)c1)C2 | -8.375% & -15.59% | 1.772%
COCC(=O)NCCc1nc2cc(-c3ccc(OC)cc3)ncn2n1 | -0.4597% | -23.12% & -16.56%
Cc1cccc(CN2C[C@@H](F)[C@@H](OCc3nc4ccccc4[nH]3)C2)n1 | 23.02% & 4.696% | -1.761%
c1ccc(Cc2noc(-c3ccc(NCC4CCCCO4)nc3)n2)cc1 (stereo not shown) | 11.61% | 14.29%
CN1CCOC[C@H]1c1nc(C(C)(C)C)c[nH]1 | -4.104% & -11.25% | -13.84%
Cc1nn(C)c(N(C)C)c1CNCc1ccnn1C | -43.2% | -13.11%
CCc1nnc(Nc2cccc(C3CCN(C(C)=O)CC3)n2)s1 | -8.746% | -14.19%
Cc1cc(N2CCN(C(=O)Cc3c(C)nc(C)[nH]c3=O)CC2)cc(C)n1 | -26.93% & -4.247% | -19.12%
CC(=O)c1ccc(OCC(=O)NS(=O)(=O)c2ccc(C)s2)cc1 | -27.76% | -8.783%
N#Cc1ccc(CNC(=O)NC2CCN(CC(F)F)CC2)cc1 | 34.68% | 12.74%
CC(NC(=O)CN1CCN(c2ccncc2Cl)CC1)c1ccco1 (stereo not shown) | 14.87% | 4.952%
CCn1ncnc1CN1CCc2[nH]cnc2C1Cc1ccccc1 (stereo not shown) | 1.291% | -13.45%
CCc1nc(C2CCCN2CC(=O)Nc2cc(C)no2)no1 (stereo not shown) | -35.48% | -12.27%
Cc1nn(C)c(C)c1C1CCCN1C(=O)CCCNc1ncccn1 (stereo not shown) | -4.352% | -15.25%
CCn1cc(CN2CCC3(CC2)c2ccccc2CC3O)cn1 (stereo not shown) | 16.27% | 4.781%
CC(=O)N1CCC(N[C@@H]2CC[C@@H]2NS(=O)(=O)c2cccnc2)CC1 | -39.11% | -8.949% & -13.03%
c1cn(CCn2cnnc2)c(-c2cc3n(n2)CCCNC3)n1 | 2.344% & 28.64% | 8.071%
Cc1oncc1C(=O)NCc1ccnc(OCC(F)(F)F)c1 | -28.27% | -13.04%
CN(C)c1nc(NCc2ccccc2Cn2cccn2)ncc1F | -17.45% | -13.43%
CCC(C)C(=O)NCc1c(C)nn(C)c1N1CCCN(C)CC1 (stereo not shown) | 21.78% | 4.066%
O=C(c1cccnc1O)N(Cc1ccsc1)CC1CCCO1 (stereo not shown) | -9.933% | -2.185%
CCSc1ccccc1C(=O)NCCN1CCC(c2cccs2)CC1 | 30.02% | 15.09%
O=C(Cn1cc(C2CC2)nn1)N(Cc1ccco1)Cc1cccs1 | -22.97% | -4.892%
C=C(C)CN(CC)S(=O)(=O)c1ccccc1C#N | -10.25% & -4.434% | -21.18%
COc1ccc(N(C)C(=O)C2CN(C)CCO2)cc1Cl (stereo not shown) | 2.455% | -2.097%
Fc1cccc(Cl)c1CN1CCn2c(nnc2C2CC2)C1 | 23.6% | -2.229%
CCc1cc(NCC(O)CN2CCCCC2)n2ncnc2n1 (stereo not shown) | -5.292% & -7.706% | 11.68%
Cc1cc(=O)[nH]cc1C(=O)N1Cc2ccccc2N(C)CC1C (stereo not shown) | -9.236% | -22.38%
CC(C)c1nc(/C=C/c2cnn(-c3ccc(Cl)cc3)c2)ncc1C(=O)O | 2.093% | 13.81%
COCCN1CCc2ncnc(NC3CC3)c2CC1 | -25.72% | -0.5582%
COCC(=O)NCC1CCCN(Cc2cc3ccccc3[nH]2)C1 (stereo not shown) | -2.969% | -3.138%
O=C(O)C(F)(F)F.O=C(O)C(F)(F)F.[H][C@@]12CN(C(=O)c3cccc(C)n3)C[C@]1([H])[C@@H]2CC(=O)Nc1cccnc1 | -10.07% | 8.931%
COCCCNC(=O)CN(C)C(=O)c1ccccc1O | -16.89% | -2.486%
Cc1nn(C)c2c(NCc3cccnc3)nc(C(C)C)nc12 | -22.71% | -22.57%
O=C1CCN(C(=O)NCC(c2ccccc2)c2ccccc2)CCN1 | -7.462% | 16.03%
COc1ccc(CNCc2cc(Br)c3c(c2)OCO3)cc1 | 0.8755% | 13.71%
CCN(CC(F)(F)F)C(=O)C1CCCN(Cc2nc(C)c(C)o2)C1 (stereo not shown) | -5.205% | -5.941%
Cc1cn2nc(N3CCCC3Cn3nc(C)cc3C)sc2n1 (stereo not shown) | 2.172% | -2.326%
COCc1n[nH]c2c1CN(Cc1ccccn1)C2.O=C(O)C(F)(F)F | -10.04% | -35.3%
N#Cc1ccc(CN2C[C@@H](F)[C@@H](OCc3nc4cnccc4[nH]3)C2)cc1 | -0.1945% & -0.1946% | -7.749%
CCSC1=Nc2c(cnn2-c2ccc(Cl)cc2)C2=NCCCN12 | 82.44% | 55.74%
CCc1nnc(CN(C)C(=O)C(CC)n2c(CC)nc3ccccc32)o1 (stereo not shown) | 1.677% | 5.655%
CCCn1nc(C)c(CNS(=O)(=O)NCc2ccccc2)c1C | -11.27% | -1.04%
Cc1noc(C)c1CN1CCN(Cc2cccnc2)c2ncccc2C1.O=C(O)C(F)(F)F.O=C(O)C(F)(F)F.O=C(O)C(F)(F)F | -43.73% | -7.513% & -4.446%
Cc1oc(C(=O)O)cc1S(=O)(=O)Nc1ccccc1F | 28.36% | -11.89%
Cc1cnn(CC2CCCN2C(=O)Cc2ccc3c(c2)CCO3)c1 (stereo not shown) | 15.39% | 10.1%
O=C(CCNC(=O)c1cnccn1)Nc1ncc[nH]1 | 3.18% | -7.288%
[H][C@@]12CCN(C(=O)COC3CCCC3)C[C@]1(COCC1CC1)CCO2 | -7.434% & -11.39% | -9.881%
Cc1noc(C)c1CN1CCc2ncnc(-c3cnn(C)c3)c2CC1.O=C(O)C(F)(F)F | 3.097% | -0.7888%
COc1ccc(C2CN(c3nc(C)cc(C)n3)CCN2C(C)=O)cc1 (stereo not shown) | -2.062% | 1.588% & 4.941%
CCOCCNC(=O)[C@@H]1CCCN1c1nccc(Nc2ccccc2)n1 | -28.65% | -23.88%
Cc1cccnc1NC(=O)c1ccc(F)c(S(=O)(=O)NC2CC2)c1 | -20.21% | -12.33%
CN(Cc1noc(C2CC2)n1)CC1CCN(CCO)CC1 | -12.09% & -65.1% | -28.54%
CCC1=NOC(CNCc2cnc(-c3ccccc3C)s2)C1 (stereo not shown) | 17.94% | 32.13% & 10.21%
COc1ccccc1C(=O)N1CC(=O)N(CC(C)C)CC(O)C1 (stereo not shown) | -8.069% | -12.61%
Cc1cc(C)n(-c2ccc3nnc(C)n3n2)n1 | -11.12% & -26.58% | -67.21%
O=C(O)C(F)(F)F.O=C(O)C(F)(F)F.[H][C@@]12C[C@@H](C(=O)NC(C)C)C[C@@]1([H])N(Cc1ccccn1)CCO2 | -18.55% & -2.459% | 15.99%
CC(C)CN1CCCC2(CCN(c3ccc(C#N)cn3)C2)C1.O=C(O)C(F)(F)F (stereo not shown) | -18.31% | -20.53%
Cc1nc(O)cc(CN2C[C@H](NS(=O)(=O)N(C)C)[C@@H](C3CC3)C2)n1 | 3.96% & 15.11% | 14.8%

Some entries from above, unchanged:

compound	A	B
CN1CCOC[C@H]1c1nc(C(C)(C)C)c[nH]1	-4.104% & -11.25%	-13.84%
CCCn1[nH]cc/c1=N\C(=O)CN1CCc2c(nc(C(C)C)n2C)C1	6.445%	-28.24%
CN(C)c1nc(NCc2ccccc2Cn2cccn2)ncc1F	-17.45%	-13.43%
CCSc1ccccc1C(=O)NCCN1CCC(c2cccs2)CC1	30.02%	15.09%
COc1ccc(C2CN(c3nc(C)cc(C)n3)CCN2C(C)=O)cc1 (stereo not shown)	-2.062%	1.588% & 4.941%
O=C(O)C(F)(F)F.[H][C@@]12CN(CC3CCOCC3)C[C@]1([H])C(=O)N(c1cnn(C)c1)C2	-8.375% & -15.59%	1.772%
COCCN1CCc2ncnc(NC3CC3)c2CC1	-25.72%	-0.5582%